Measurements: article PMC7205312
Where a chain is given by its changes, count along the chain named. Names may count otherwise. No constants are given. Whether binding was seen depends on the method and setting. Binding seen in cells or lysates may run through a third protein. Some binding calls cover weakened binding; strength is not graded here.

Assays:
Assay in all cases: co-IP; Myc- and HA-tagged copies of full-length Tm-2^2 (or mutant) co-expressed WITH TMV MP-YFP (GenBank BAF93925.1) in N. benthamiana; leaves collected at 22-24 hpi; IP with anti-Myc beads, 3 h at 4°C, IP buffer 25 mM Tris-HCl pH 7.5, 150 mM NaCl, 1 mM EDTA, 10% glycerol, 10 mM DTT, 0.2-0.5% NP-40; blot anti-HA
Tm-2^2 (L242A) (tomato) = Tm-2^2 (L242A) (tomato) (UniProt Q71BG9)
Tm-2^2 (L246A) (tomato) = Tm-2^2 (L246A) (tomato) (UniProt Q71BG9)
Tm-2^2 (K191R) (tomato) = Tm-2^2 (K191R) (tomato) (UniProt Q71BG9)

B1: Tm-2^2 (L242A) (receptor, UniProt Q71BG9 1-861)
chain: MAEILLTSVINKSVEIAGNLLIQEGKRLYWLKEDIDWLQREMRHIRSYVDNAKAKEAGGDSRVKNLLKDIQELAGDVEDLLDDFLPKIQQSNKFNYCLKRSSFADEFAMEIEKIKRRVVDIDRIRKTYNIIDTDNNNDDCVLLDRRRLFLHADETEIIGLDDDFNMLQAKLLNQDLHYGVVSIVGMPGLGKTTLAKKLYRLIRDQFECSGLVYVSQQPRASEILLDIAKQIGLTEQKMKENAEDNLRSLLKIKRYVILLDDIWDVEIWDDLKLVLPECDSKVGSRMIITSRNSNVGRYIGGESSLHALQPLESEKSFELFTKKIFNFDDNNSWANASPDLVNIGRNIVGRCGGIPLAIVVTAGMLRARERTEHAWNRVLESMGHKVQDGCAKVLALSYNDLPIASRPCFLYFGLYPEDHEIRAFDLINMWIAEKFIVVNSGNRREAEDLAEDVLNDLVSRNLIQLAKRTYNGRISSCRIHDLLHSLCVDLAKESNFFHTAHDAFGDPGNVARLRRITFYSDNVMIEFFRSNPKLEKLRVLFCFAKDPSIFSHMAYFDFKLLHTLVVVMSQSFQAYVTIPSKFGNMTCLRYLRLEGNICGKLPNSIVKLTRLETIDIDRRSLIQPPSGVWESKHLRHLCYRDYGQACNSCFSISSFYPNIYSLHPNNLQTLMWIPDKFFEPRLLHRLINLRKLGILGVSNSTVKMLSIFSPVLKALEVLKLSFSSDPSEQIKLSSYPHIAKLHLNVNRTMALNSQSFPPNLIKLTLAYFSVDRYILAVLKTFPKLRKLKMFICKYNEEKMDLSGEANGYSFPQLEVLHIHSPNGLSEVTCTDDVSMPKLKKLLLTGFHCRISLSERLKKLSK
Tm-2^2 (L242A) (tomato)
  binding: binds

B2: Tm-2^2 (L246A) (receptor, UniProt Q71BG9 1-861)
chain: B1 chain with A242L, L246A
Tm-2^2 (L246A) (tomato)
  binding: binds

B3: Tm-2^2 (K191R) (receptor, UniProt Q71BG9 1-861)
chain: B1 chain with K191R, A242L
Tm-2^2 (K191R) (tomato)
  binding: no binding
